Experimental findings from patent publication US7880959B2, “Display element” (Konica Minolta Holdings, Inc., priority 2006, dated 2011) are described below.

The structures appear in SMILES notation. Like-named read-outs stand apart in the source and are kept apart here.

For the series the following is noted: for Display Speed Rglay: reflectance after -1.5 V for 0.5 sec, lower = faster.

Take `Sc1nc2ccccc2[nH]1` [Comp. 1, 2-mercaptobenzimidazole]: under “DMSO, AgI”, the “Display Speed Rglay” value came to 40%. In addition, the “display speed (in words)” value (dimethylsulfoxide as electrolyte solvent) is reported as “delayed”.

In the case of `NS(=O)(=O)c1ccccc1-c1nnc(S)[nH]1` [Compound 1-7], the “Display Speed Rglay” value (γBL, silver tosylate) came out at 2%.

In the case of `NC(=O)c1ccccc1-c1nnc(S)[nH]1` [Compound 1-8], the “Display Speed Rglay” value (γBL, silver tosylate) came out at 6%.
